No constants are given. Whether binding was seen depends on the method and setting. Some entries that bind do so weakly or less than the wild type.
Target: T1, K. pneumoniae topoisomerase IV ParC breakage-reunion domain (ParC55; residues 1–490) (K. pneumoniae (strain ATCC 35657))
T1 sequence: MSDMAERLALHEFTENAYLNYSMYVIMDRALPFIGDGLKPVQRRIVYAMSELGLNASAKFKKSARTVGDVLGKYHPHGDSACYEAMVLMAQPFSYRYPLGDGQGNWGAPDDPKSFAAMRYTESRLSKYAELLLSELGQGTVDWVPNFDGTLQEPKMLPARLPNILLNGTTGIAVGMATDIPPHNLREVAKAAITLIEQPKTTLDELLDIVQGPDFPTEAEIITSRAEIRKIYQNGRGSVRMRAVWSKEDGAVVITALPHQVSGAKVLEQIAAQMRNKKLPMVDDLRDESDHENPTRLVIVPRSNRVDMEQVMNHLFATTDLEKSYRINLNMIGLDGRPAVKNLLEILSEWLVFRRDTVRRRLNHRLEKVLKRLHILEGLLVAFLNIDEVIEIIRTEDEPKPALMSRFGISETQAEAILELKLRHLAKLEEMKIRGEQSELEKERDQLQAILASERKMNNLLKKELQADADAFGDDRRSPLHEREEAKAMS
Experiment: crystal structure; K. pneumoniae ParE-ParC fusion (4.5 mg/ml) co-crystallised with pre-cut 34-mer E-site DNA (1:1.2 protein:DNA), 2 mM levofloxacin, 10 mM MgCl2; vapour diffusion, 298 K; 3.35 Å, space group P2(1); both purified

binding: binds
B1: K. pneumoniae topoisomerase IV ParE TOPRIM domain (ParE30; residues 390–631) (domain or fragment)
chain: KKLTSGPALPGKLADCTAQDLNRTELFLVEGDSAGGSAKQARDREYQAIMPLKGKILNTWEVSSDEVLASQEVHDISVAIGIDPDSDDLSQLRYGKICILADADSDGLHIATLLCALFVRHFRTLVKEGHVYVALPPLYRIDLGKEVYYALTEEEKTGVLEQLKRKKGKPNVQRFKGLGEMNPMQLRETTLDPNTRRLVQLVISDEDEQQTTAIMDMLLAKKRSEDRRNWLQEKGDMADLEV

Reference: paper PMC4822561
